The record followed here is article PMC7198521.

Protein sequences, listed by entry. Tags and fused reporters are not part of them. Lines headed by an entry give the natural chain unless they say otherwise; changes in a name come on top.
UniProt Q9XWN2: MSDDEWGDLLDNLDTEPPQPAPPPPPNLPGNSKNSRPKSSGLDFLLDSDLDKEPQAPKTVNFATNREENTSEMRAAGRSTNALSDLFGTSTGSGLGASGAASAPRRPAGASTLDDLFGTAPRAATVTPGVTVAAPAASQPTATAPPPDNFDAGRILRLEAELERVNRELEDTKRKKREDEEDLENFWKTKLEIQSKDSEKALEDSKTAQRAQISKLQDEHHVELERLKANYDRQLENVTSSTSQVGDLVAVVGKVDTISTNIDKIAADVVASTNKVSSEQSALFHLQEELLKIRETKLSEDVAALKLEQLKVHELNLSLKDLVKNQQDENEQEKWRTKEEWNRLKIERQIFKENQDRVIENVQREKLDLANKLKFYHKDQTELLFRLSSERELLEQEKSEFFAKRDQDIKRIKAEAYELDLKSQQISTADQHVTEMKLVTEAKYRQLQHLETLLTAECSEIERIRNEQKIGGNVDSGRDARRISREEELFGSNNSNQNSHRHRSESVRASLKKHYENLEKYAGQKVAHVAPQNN
UniProt Q9U205: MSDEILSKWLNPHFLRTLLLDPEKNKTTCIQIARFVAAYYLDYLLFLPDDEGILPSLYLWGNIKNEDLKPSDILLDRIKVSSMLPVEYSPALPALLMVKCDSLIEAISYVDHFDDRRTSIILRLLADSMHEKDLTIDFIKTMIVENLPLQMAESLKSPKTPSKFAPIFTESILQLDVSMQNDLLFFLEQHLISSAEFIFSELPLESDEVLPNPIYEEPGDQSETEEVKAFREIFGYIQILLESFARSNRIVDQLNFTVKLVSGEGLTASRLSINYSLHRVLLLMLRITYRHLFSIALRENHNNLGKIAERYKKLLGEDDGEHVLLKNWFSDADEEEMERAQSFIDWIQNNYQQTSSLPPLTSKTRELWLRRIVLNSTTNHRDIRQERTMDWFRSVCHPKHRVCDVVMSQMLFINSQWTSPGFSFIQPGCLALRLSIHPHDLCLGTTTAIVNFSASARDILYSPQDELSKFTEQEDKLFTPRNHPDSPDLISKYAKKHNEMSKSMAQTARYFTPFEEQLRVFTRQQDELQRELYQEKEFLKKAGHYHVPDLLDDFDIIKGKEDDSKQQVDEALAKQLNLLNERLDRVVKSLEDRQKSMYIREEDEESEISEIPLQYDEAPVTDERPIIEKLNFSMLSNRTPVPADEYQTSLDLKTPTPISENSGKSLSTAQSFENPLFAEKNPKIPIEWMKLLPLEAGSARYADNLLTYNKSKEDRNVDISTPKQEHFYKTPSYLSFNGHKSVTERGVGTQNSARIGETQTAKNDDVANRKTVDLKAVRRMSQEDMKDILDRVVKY
UniProt O16626: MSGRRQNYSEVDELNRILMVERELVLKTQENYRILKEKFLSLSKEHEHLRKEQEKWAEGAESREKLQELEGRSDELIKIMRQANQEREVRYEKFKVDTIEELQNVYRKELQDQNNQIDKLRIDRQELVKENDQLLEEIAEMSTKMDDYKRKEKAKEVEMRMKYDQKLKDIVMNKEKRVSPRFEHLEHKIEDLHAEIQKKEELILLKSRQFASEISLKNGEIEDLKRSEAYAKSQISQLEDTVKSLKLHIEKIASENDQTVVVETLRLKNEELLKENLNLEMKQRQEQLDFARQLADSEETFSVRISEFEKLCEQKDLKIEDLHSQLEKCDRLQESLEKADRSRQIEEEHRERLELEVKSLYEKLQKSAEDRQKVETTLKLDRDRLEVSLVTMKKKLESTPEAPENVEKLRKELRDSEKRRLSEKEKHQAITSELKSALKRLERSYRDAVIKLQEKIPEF

Experiment [1] addresses DYF-19 (recombinant, GST pull-down) (C. elegans) (UniProt Q9XWN2). The experiment can be described thus: pull-down; purified GST fusion protein immobilised on glutathione Sepharose beads, incubated with His fusion protein 4 h at 4 °C; 50 mM Tris-HCl pH 7.4, 150 mM NaCl, 1% Triton X-100, 1 mM dithiothreitol, 10% glycerol; western blot with anti-His antibody; both purified. In general terms: In western blotting, separated proteins are transferred to a membrane and probed.

Experiment [2] addresses GST-fused full-length TALP-3 (C. elegans) (UniProt Q9U205). The experiment is described as above.

These are yes or no findings as the source states them, for the method shown. A result given as binding can be weak or reduced; the word gives no strength.

With His-fused ANKR-26 (from UniProt O16626), the binding entry in experiment [1] and in experiment [2] was “binds” each time.
For “DYF-19 (recombinant, GST pull-down) (from UniProt Q9XWN2)”, in experiment [2], the binding entry is recorded as “binds”.
